The other results are listed elsewhere or left out.

Amino acid sequences for entries named in this document (tags omitted). A change or cut given only in a name is not applied to a line headed by its entry.
UniProt Q6ZTR5: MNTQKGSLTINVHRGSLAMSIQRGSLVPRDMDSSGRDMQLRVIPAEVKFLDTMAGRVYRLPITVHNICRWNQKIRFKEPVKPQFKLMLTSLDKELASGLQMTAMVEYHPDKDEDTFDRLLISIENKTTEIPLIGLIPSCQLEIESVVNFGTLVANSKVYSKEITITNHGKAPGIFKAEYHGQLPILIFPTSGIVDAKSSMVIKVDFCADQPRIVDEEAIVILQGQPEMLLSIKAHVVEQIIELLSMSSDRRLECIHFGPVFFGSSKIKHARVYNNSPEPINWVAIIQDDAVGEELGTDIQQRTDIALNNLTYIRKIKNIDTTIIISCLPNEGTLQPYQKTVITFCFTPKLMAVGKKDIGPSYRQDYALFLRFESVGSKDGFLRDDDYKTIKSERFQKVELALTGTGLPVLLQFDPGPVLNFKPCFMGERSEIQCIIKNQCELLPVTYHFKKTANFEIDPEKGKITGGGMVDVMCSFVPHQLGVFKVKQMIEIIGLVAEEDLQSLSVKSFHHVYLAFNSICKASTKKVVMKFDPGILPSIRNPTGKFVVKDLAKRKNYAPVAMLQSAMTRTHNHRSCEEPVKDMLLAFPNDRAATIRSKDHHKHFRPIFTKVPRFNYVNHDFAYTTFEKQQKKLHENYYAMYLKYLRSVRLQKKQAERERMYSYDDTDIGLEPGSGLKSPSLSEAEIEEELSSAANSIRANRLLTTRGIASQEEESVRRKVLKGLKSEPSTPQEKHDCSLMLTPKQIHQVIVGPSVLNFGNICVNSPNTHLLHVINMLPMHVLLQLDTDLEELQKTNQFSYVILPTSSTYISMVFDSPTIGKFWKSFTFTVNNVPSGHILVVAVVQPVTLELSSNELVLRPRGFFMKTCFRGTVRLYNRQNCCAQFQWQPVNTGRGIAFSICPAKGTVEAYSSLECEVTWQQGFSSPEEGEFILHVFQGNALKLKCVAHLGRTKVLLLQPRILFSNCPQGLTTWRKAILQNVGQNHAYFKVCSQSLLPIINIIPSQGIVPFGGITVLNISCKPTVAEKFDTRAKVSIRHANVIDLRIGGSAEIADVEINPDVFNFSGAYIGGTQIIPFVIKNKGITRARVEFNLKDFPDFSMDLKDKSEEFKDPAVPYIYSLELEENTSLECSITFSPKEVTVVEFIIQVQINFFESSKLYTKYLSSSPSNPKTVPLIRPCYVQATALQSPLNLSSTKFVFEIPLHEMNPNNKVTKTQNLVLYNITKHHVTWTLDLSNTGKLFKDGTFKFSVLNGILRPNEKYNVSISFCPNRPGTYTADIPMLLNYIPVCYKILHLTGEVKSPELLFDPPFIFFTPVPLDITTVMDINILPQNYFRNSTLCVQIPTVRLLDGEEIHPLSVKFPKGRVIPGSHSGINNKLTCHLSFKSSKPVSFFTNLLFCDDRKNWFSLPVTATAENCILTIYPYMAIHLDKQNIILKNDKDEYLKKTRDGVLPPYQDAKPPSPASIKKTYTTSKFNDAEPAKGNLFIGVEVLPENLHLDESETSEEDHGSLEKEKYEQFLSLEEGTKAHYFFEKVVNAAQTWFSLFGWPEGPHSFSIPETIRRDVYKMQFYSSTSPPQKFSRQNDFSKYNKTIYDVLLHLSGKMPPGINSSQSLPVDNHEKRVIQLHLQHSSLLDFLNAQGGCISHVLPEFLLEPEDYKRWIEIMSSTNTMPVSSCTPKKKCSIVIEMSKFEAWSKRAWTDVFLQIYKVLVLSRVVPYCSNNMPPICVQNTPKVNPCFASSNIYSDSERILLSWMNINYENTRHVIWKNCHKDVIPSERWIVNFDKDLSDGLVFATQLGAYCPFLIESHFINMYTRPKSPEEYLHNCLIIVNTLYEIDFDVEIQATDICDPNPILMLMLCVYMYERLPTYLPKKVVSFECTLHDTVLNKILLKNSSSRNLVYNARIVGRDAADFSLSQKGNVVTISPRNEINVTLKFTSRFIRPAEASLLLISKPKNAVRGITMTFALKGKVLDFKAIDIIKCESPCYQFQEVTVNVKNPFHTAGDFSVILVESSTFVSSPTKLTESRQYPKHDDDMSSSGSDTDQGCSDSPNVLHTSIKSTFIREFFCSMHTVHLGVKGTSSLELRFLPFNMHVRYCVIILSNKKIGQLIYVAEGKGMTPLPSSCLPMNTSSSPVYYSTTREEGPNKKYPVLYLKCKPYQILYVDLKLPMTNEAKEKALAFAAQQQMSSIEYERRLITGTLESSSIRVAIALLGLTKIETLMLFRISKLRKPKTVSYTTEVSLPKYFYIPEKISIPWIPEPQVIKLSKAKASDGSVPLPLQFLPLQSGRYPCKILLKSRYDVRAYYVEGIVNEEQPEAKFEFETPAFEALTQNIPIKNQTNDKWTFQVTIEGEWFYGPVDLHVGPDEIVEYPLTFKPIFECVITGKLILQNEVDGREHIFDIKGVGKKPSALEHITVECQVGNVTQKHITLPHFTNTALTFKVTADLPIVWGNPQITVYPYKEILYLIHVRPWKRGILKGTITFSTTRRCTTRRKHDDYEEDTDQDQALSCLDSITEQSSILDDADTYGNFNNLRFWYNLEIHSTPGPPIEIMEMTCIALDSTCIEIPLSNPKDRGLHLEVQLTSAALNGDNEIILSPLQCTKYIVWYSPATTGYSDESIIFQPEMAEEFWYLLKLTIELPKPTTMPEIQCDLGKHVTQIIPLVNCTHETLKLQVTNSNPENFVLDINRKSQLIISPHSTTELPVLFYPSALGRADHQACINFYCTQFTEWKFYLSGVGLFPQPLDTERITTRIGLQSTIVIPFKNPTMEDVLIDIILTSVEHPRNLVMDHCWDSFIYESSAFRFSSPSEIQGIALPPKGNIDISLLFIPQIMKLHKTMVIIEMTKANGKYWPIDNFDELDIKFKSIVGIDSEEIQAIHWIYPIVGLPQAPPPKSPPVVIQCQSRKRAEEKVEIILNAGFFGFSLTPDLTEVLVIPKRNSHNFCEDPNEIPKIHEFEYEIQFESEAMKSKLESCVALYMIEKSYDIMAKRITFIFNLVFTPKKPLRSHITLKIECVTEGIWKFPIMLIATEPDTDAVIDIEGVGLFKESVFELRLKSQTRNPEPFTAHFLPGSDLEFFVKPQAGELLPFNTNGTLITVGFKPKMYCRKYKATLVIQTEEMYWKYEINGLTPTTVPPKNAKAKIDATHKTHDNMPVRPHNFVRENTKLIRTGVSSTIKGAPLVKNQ
UniProt Q00535, whole entry, looked up: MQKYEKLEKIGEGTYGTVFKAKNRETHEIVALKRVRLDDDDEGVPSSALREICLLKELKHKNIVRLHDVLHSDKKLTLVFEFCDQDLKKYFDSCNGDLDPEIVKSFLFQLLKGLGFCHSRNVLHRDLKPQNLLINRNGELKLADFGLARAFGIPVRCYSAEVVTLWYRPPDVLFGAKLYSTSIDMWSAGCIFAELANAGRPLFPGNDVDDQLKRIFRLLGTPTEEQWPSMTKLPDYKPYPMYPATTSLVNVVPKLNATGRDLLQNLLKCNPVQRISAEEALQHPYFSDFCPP
UniProt P27701: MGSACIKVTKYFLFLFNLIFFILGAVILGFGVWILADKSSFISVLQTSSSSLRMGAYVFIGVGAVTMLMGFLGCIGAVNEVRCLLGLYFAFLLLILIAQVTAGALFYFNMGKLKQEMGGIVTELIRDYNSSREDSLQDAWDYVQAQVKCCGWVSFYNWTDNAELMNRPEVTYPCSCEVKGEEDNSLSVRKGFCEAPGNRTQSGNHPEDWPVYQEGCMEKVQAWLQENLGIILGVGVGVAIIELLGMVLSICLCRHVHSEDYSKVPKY
UniProt O15519, whole entry, looked up: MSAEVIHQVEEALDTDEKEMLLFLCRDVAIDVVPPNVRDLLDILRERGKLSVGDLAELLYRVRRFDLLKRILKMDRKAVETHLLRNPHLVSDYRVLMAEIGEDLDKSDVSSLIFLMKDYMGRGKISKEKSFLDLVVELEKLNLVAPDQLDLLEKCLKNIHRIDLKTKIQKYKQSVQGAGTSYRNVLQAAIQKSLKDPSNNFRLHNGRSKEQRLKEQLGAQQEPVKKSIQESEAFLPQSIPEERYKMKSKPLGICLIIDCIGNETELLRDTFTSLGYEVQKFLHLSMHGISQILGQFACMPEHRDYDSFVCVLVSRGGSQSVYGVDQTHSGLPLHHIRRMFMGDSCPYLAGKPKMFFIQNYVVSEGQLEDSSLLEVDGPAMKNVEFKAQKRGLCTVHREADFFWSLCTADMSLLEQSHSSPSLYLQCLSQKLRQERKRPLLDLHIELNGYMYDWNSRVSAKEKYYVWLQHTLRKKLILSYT
UniProt P21926: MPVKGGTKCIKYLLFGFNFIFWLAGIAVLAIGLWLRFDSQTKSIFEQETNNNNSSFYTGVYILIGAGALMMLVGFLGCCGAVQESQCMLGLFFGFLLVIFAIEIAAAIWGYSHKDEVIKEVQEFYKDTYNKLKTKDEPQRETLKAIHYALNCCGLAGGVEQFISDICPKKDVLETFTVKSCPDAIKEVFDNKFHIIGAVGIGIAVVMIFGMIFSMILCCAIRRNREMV
UniProt Q9P2B7: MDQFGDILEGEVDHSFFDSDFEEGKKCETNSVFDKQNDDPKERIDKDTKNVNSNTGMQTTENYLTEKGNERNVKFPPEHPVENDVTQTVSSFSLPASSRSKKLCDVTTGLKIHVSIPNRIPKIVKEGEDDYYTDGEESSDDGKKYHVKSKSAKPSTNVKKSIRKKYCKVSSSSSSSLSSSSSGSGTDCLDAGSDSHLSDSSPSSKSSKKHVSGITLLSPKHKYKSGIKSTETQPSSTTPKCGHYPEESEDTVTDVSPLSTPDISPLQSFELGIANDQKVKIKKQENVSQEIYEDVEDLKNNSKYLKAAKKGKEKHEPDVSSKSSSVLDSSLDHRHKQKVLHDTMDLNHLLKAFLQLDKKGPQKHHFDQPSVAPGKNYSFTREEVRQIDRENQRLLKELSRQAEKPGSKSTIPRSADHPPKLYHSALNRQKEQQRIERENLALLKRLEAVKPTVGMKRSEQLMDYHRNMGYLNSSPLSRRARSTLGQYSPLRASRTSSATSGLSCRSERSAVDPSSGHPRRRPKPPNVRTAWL

Common to all, as to assay: log2 fold change, soluble protein after heating vs DMSO (PISA); higher = thermal stabilisation; K562 lysate, 10 uM; active = over 0.2 and 3.5 SD of the protein, either way, in both replicates (recomputed)
Compound in one assay: CCCS(=O)(=O)Nc1ccc(F)c(C(=O)c2c[nH]c3ncc(-c4ccc(Cl)cc4)cc23)c1F [vemurafenib]
Put shortly: (§1)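 Log-two fold change in thermal stability relative to solvent controls is reported from duplicates. For each sample, crude K562 extract from dounce-homogenised pellets in PBS pH 7.4 with 1 mM MgCl2, at 1 mg/mL protein, was treated with 10 μM compound for 30 min. Aliquots heated for 3 min across 48°C-58°C were pooled, brought to 0.5% NP-40 at 4°C and cleared at 21,000xg for 90 min. The supernatant was quantified by TMTpro 16plex LC-MS/MS with channel sums equalised.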

Compound in assay [1]: CCCS(=O)(=O)Nc1ccc(F)c(C(=O)c2c[nH]c3ncc(Cl)cc23)c1F
Put shortly: as §1

Compound in assay [2]: CC[C@@H]1C(=O)N(C)c2cnc(Nc3ccc(C(=O)NC4CCN(C)CC4)cc3OC)nc2N1C1CCCC1
Put shortly:
as §1

Compound in a further assay: CC[C@@H]1C(=O)N(C)c2cnc(Nc3ccc(C(=O)N[C@H]4CC[C@H](N5CCN(CC6CC6)CC5)CC4)cc3OC)nc2N1C(C)C [volasertib]
In outline: as §1

Compound in assay [3]: CCn1c(C(=O)N(C2CC2)C2CC2)cc2c3c(ncn3C)c(Nc3cc(C)n(C)n3)nc21
In outline: as §1

Compound in assay [4]: CCn1cc(-c2ccnc3[nH]c(-c4cccc(CN(C)C)c4)cc23)c(-c2ccc(NC(=O)N(C)C)cc2)n1
In outline: as §1

Compound in assay [5]: CN1CCC(CNc2ccc3ncc(-c4cccc(OC(F)(F)F)c4)n3n2)CC1
In outline:
as §1

Compound in another assay: CN1CCN(CCOc2cc(OC3CCOCC3)c3c(Nc4c(Cl)ccc5c4OCO5)ncnc3c2)CC1 [saracatinib]
Put shortly:
as §1

Compound in a further assay: CN1CCN(c2nc(C3=C(c4c[nH]c5ccccc45)C(=O)NC3=O)c3ccccc3n2)CC1 [sotrastaurin]
Put shortly: as §1

Compound in a further assay: CN1CC[C@H](c2c(O)cc(O)c3c(=O)cc(-c4ccccc4Cl)oc23)[C@H](O)C1 [alvocidib]
In outline: as §1

Compound in the next assay: CN1CCc2c(c3ccccc3n2Cc2ccc(C(=O)NO)cc2)C1 [Tubastatin A]
Put shortly: as §1

Compound in assay [6]: CNC(=O)C1=CC=CC=C1NC2=NC(=NC=C2Cl)NC3=C(C=C(C=C3)N4CCOCC4)OC
In outline: as §1

Compound in a further assay: CNC(=O)c1ccc(Nc2ncc(C(F)(F)F)c(NCc3nccnc3N(C)S(C)(=O)=O)n2)cc1 [defactinib]
In outline: as §1

Compound in assay [7]: CNc1nc(-c2ccc3c(N)n[nH]c3c2)cc(N2C[C@@H](C(=O)NC3CCCCC3)CC[C@H]2C)n1
Put shortly: as §1

Compound in another assay: COC(=O)N[C@@H](C)CNc1nccc(-c2cn(C(C)C)nc2-c2cc(Cl)cc(NS(C)(=O)=O)c2F)n1 [encorafenib]
In outline: as §1

Compound in assay [8]: COC(=O)[C@H](CCSC)NC(=O)C1=C(C=C(C=C1)NC[C@H](CS)N)C2=CC=CC=C2
Put shortly: as §1

Compound in the next assay: COc1cc(Nc2ncc3c(n2)-c2ccc(Cl)cc2C(c2c(F)cccc2OC)=NC3)ccc1C(=O)O [alisertib]
In outline:
as §1

Compound in assay [9]: COc1cc2nc(-c3cc(F)ccc3O)nc(N[C@@H]3CNC[C@H]3C(C)(C)O)c2cc1OC
Put shortly:
as §1

Compound in the next assay: COc1cc2ncnc(Nc3ccc(F)c(Cl)c3)c2cc1OCCCN1CCOCC1 [gefitinib]
In outline:
as §1

For CFAP47 (UniProt Q6ZTR5), the log2 fold change is inactive: -0.088 with vemurafenib; inactive: 0.218 in assay [1]; inactive: 0.142 in assay [2]; inactive: 0.173 with volasertib; inactive: -0.273 in assay [3]; inactive: -0.286 in assay [4]. The log2 fold change in assay [5] is inactive: 0.05; with saracatinib, inactive: 0.069; with sotrastaurin it was inactive: 0.04; with alvocidib it was inactive: -0.098; in the assay with Tubastatin A it was inactive: 0.104; in assay [6], inactive: 0.092. Also, the log2 fold change with defactinib was inactive: -0.045; in [7], inactive: 0.612; with encorafenib, inactive: 0.005; in assay [8] it was inactive: 0.133; with alisertib, inactive: -0.271; in assay [9], inactive: 0.117. Moreover, in the assay with gefitinib, the log2 fold change is inactive: -0.121.
With CDK5 (UniProt Q00535), the log2 fold change is inactive: -0.021 in the assay with vemurafenib; inactive: 0.022 in assay [1]; inactive: -0.08 in assay [2]; inactive: -0.079 with volasertib; inactive: 0.008 in [3]; inactive: -0.055 in assay [4]. In addition, the log2 fold change in assay [5] is inactive: 0.071; in the assay with saracatinib it was inactive: -0.008; with sotrastaurin, inactive: 0.175; with alvocidib it was active: 1.07; in the assay with Tubastatin A it was inactive: -0.058; in [6] it was inactive: 0.211. Besides, the log2 fold change is active: 0.654 in the assay with defactinib; inactive: -0.032 in assay [7]; inactive: 0.024 with encorafenib; inactive: -0.1 in assay [8]; inactive: -0.032 with alisertib; inactive: 0.03 in assay [9]. In addition, in the assay with gefitinib, the log2 fold change is inactive: -0.027.
Turning to CD82 (UniProt P27701), the log2 fold change in the assay with vemurafenib is inactive: 0.098; in assay [1] it was inactive: -0.083; in the assay with volasertib, inactive: 0.106; in [3], inactive: -0.104; in assay [4], inactive: -0.133; in [5], inactive: 0.059. The log2 fold change with alvocidib is inactive: -0.141; with Tubastatin A, inactive: 0.037; in [6], inactive: -0.031; in the assay with defactinib it was inactive: -0.097; in the assay with alisertib, inactive: -0.169; in assay [9], inactive: -0.023. Also, in the assay with gefitinib, the log2 fold change was inactive: -0.084.
For CFLAR (UniProt O15519), the log2 fold change was inactive: -0.089 with vemurafenib; inactive: 0.022 in assay [2]; inactive: 0.02 in assay [3]; inactive: 0.037 in assay [4]; inactive: 0.07 in [5]; inactive: 0.082 in the assay with saracatinib. In addition, the log2 fold change in the assay with sotrastaurin is inactive: -0.01; with alvocidib, inactive: -0.094; with Tubastatin A, inactive: -0.012; with defactinib, inactive: -0.003; in assay [7], inactive: 0.029; with encorafenib, inactive: 0.079. Besides, in assay [8], the log2 fold change is inactive: -0.12.
With CD9 (UniProt P21926), the log2 fold change is inactive: -0.069 with vemurafenib; inactive: 0.186 in assay [2]; inactive: -0.129 in assay [4]; inactive: 0.014 in assay [5]; inactive: -0.002 in the assay with saracatinib; inactive: -0.016 in the assay with alvocidib. The log2 fold change is inactive: 0.041 in the assay with defactinib, inactive: 0.026 in assay [7], inactive: 0.064 with encorafenib and inactive: 0.107 in assay [8].
Turning to CFAP97 (UniProt Q9P2B7), the log2 fold change in the assay with vemurafenib is inactive: 0.14; in assay [3] it was inactive: 0.005; in [4] it was inactive: 0.043; in assay [5] it was inactive: -0.125; with saracatinib it was inactive: 0.002; with sotrastaurin, inactive: 0.015. Besides, the log2 fold change was inactive: -0.016 in the assay with alvocidib; inactive: -0.148 with Tubastatin A; inactive: 0.025 in assay [6]; inactive: 0.272 in the assay with defactinib; inactive: 0.086 in assay [7].

For the origin of these results see the supplement of paper PMC10849652.
